{"source": "patent US20250186386A1", "about": "“METHODS OF REDUCING THE NEED FOR PERIPHERAL ARTERIAL REVASCULARIZATION IN A STATIN-TREATED SUBJECT” (AMARIN PHARMACEUTICALS IRELAND LIMITED, priority 2018, published 2025)", "system": "hypertriglyceridemic patients with cardiovascular disease or at high risk for cardiovascular disease, on statin therapy", "format": "in vivo, human", "settings": "for Influence of achieved triglyceride level (above or below 150 mg/dL) at 1 year on efficacy vs placebo (primary or key secondary endpoint): 1 year after randomization", "description": "The following study, also referred to as the REDUCE-IT clinical trial, was a large cardiovascular (CV) outcome trial designed to assess CV risk reduction benefit of AMR101 treatment (commercially known as VASCEPA®) versus placebo on the 5-point primary composite endpoint: CV death, non-fatal stroke, non-fatal myocardial infarction (MI), coronary revascularizations, or unstable angina requiring hospitalization.\nA multi-center, prospective, randomized, double-blind, placebo-controlled, parallel-group study was performed to evaluate the effect of AMR101 (4 g per day) on cardiovascular health and mortality in hypertriglyceridemic patients with cardiovascular disease or at high risk for cardiovascular disease. The intended expanded indication of the study was treatment with AMR101 as an add-on to statin therapy to reduce the risk of cardiovascular events in patients with clinical cardiovascular disease or with multiple risk factors for cardiovascular disease.\nThe primary objective of this study was, in patients at LDL-C goal while on statin therapy, with established cardiovascular disease (CVD) or at high risk for CVD, and hypertriglyceridemia (e.g., fasting triglycerides (TG)≥200 mg/dL and <500 mg/dL), to evaluate the effect of AMR101 4 g daily on time from randomization to first occurrence of any component of the composite of the following major CV events: CV death; nonfatal MI; (including silent MI; electrocardiograms (ECGs) were performed annually for the detection of silent MIs); nonfatal stroke; coronary revascularization; and unstable angina determined to be caused by myocardial ischemia by invasive/non-invasive testing and requiring emergent hospitalization.\nThe key secondary objective of this study was to evaluate the effect of AMR101 4 g daily on the time from randomization to the first occurrence of the composite of following major CV events: CV death, nonfatal MI (including silent MI), and nonfatal stroke.\nOther secondary objectives for this study were to evaluate the effect of therapy on time from randomization to the first occurrence of the following individual or composite endpoints: composite of CV death or nonfatal MI (including silent MI); fatal or nonfatal MI (including silent MI); non-elective coronary revascularization represented as the composite of emergent or urgent classifications; CV death; unstable angina determined to be caused by myocardial ischemia by invasive/non-invasive testing and requiring emergent hospitalization; fatal or nonfatal stroke; composite of total mortality, nonfatal MI (including silent MI), or nonfatal stroke; and total mortality.\nPrimary Efficacy Endpoint: The primary efficacy endpoint was time from randomization to the first occurrence of the composite of the following clinical events: CV death; nonfatal MI (including silent MI; ECGs were performed annually for the detection of silent MIs); nonfatal stroke; coronary revascularization; and unstable angina determined to be caused by myocardial ischemia by invasive/non-invasive testing and requiring emergent hospitalization. The first occurrence of any of these major adverse vascular events during the follow-up period of the study were included in the incidence.\nSecondary Efficacy Endpoints: The key secondary efficacy endpoint was the time from randomization to the first occurrence of the composite of CV death, nonfatal MI (including silent MI), or nonfatal stroke. […]", "note": "Like-named read-outs stand apart in the source and are kept apart here. At least one compound was matched to its structure with a doubt left."}
{"compound": "CC/C=C\\C/C=C\\C/C=C\\C/C=C\\C/C=C\\CCCC(=O)OCC", "note": "[AMR101, icosapent ethyl]", "values": [{"measurement": "Influence of achieved triglyceride level (above or below 150 mg/dL) at 1 year on efficacy vs placebo (primary or key secondary endpoint)", "value": "did not influence"}, {"measurement": "Influence of achieved triglyceride level (above or below 150 mg/dL) at 1 year on efficacy vs placebo (primary or key secondary endpoint)", "setting": "listed as icosapent ethyl", "value": "no influence"}, {"measurement": "Amputation for PVD n/N", "setting": "ITT", "value": "22/4089"}, {"measurement": "Cardiac Arrest n/N", "setting": "ITT", "value": "22/4089"}, {"measurement": "Cardiac Arrhythmias Requiring Hospitalization of ≥24 Hours n/N", "setting": "ITT", "value": "188/4089"}, {"measurement": "Carotid Revascularization n/N", "setting": "ITT", "value": "31/4089"}, {"measurement": "Coronary Revascularization n/N", "setting": "ITT", "value": "376/4089"}, {"measurement": "Elective Revascularization n/N", "setting": "ITT", "value": "194/4089"}, {"measurement": "Emergent Revascularization n/N", "setting": "ITT", "value": "41/4089"}, {"measurement": "Hemorrhagic Stroke n/N", "setting": "ITT", "value": "13/4089"}, {"measurement": "Ischemic Stroke n/N", "setting": "ITT", "value": "80/4089"}, {"measurement": "New Heart Failure Requiring Hospitalization n/N", "setting": "ITT", "value": "141/4089"}, {"measurement": "New Heart Failure n/N", "setting": "ITT", "value": "169/4089"}, {"measurement": "Primary Endpoint in Patients with Diabetes at Baseline n/N", "setting": "ITT", "value": "433/2394"}, {"measurement": "Salvage Revascularization n/N", "setting": "ITT", "value": "0/4089"}, {"measurement": "Sudden Cardiac Death n/N", "setting": "ITT", "value": "61/4089"}, {"measurement": "Transient Ischemic Attack n/N", "setting": "ITT", "value": "64/4089"}, {"measurement": "Urgent Revascularization n/N", "setting": "ITT", "value": "181/4089"}, {"measurement": "New Onset of Diabetes n/N", "setting": "patients with diabetes at baseline excluded", "value": "65/1695"}, {"measurement": "Benefit vs placebo on the primary endpoint according to whether placebo patients had an increase in LDL cholesterol at 1 year or no change or a decrease", "setting": "post hoc analysis", "value": "no substantial difference"}, {"measurement": "Influence of baseline triglyceride levels (≥150 vs <150 mg/dL or ≥200 or <200 mg/dL) on primary or key secondary efficacy endpoints", "setting": "prespecified subgroups, vs placebo", "value": "no influence"}, {"measurement": "Individual and composite ischemic endpoints (prespecified hierarchical testing)", "setting": "vs placebo, all except death from any cause", "value": "significantly reduced"}]}
